Assay in all cases: DAPPL (digital affinity profiling via proximity ligation, sequencing)
Common to all, as to conditions: 10 mM Tris-HCl pH 7.5, 50 mM NaCl, 1 mM DTT, 4% glycerol, room temperature, 30 min; GST-TFs on glutathione beads, 16-mer random dsDNA library, 0.1% …; high values mean tight binding; double strand, one strand shown; scale: fold enrichment (6-mer frequency, TF over GST control)

Sequences of proteins named here, by UniProt entry; tags and fusion partners are left off. A change or cut given only in a name is not applied to a line headed by its entry.
UniProt Q01892: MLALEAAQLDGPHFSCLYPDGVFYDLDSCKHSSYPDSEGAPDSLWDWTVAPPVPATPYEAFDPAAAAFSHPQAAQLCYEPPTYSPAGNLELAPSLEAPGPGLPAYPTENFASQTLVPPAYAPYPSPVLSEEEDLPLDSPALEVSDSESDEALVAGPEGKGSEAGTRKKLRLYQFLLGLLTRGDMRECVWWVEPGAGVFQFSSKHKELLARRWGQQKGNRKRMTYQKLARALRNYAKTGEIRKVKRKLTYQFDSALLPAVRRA
UniProt P41161: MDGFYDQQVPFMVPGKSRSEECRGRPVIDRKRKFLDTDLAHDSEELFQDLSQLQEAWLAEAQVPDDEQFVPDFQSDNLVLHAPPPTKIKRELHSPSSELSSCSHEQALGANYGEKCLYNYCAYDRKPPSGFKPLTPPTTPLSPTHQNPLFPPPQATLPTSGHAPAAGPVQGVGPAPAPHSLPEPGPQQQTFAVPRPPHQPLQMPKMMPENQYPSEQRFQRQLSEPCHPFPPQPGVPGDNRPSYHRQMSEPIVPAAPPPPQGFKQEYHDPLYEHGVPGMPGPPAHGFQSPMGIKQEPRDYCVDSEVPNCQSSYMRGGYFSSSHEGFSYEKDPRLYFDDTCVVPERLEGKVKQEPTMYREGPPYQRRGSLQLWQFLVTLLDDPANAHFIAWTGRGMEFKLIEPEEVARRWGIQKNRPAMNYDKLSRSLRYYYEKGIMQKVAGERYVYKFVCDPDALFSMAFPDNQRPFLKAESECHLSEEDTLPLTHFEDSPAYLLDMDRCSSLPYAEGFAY
UniProt Q99607: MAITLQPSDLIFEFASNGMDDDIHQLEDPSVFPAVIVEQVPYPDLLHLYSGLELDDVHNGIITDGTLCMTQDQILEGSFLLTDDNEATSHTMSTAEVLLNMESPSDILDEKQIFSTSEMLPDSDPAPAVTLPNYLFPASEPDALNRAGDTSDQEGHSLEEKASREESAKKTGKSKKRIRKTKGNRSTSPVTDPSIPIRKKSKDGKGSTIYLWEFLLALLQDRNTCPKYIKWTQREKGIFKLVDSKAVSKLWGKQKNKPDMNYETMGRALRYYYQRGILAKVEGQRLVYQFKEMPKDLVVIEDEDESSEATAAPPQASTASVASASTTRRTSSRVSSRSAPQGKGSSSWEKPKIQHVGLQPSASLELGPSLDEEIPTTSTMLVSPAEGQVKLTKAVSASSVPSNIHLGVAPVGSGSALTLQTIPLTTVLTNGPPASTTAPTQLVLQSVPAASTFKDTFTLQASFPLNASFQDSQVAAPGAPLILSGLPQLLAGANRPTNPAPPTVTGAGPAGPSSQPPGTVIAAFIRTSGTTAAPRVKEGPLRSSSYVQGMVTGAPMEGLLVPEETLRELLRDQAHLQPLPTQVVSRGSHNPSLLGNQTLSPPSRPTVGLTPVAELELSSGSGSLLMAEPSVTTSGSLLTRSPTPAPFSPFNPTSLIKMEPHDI

The target of assay [1] is T1, FLI1 (UniProt Q01543).
T1 sequence: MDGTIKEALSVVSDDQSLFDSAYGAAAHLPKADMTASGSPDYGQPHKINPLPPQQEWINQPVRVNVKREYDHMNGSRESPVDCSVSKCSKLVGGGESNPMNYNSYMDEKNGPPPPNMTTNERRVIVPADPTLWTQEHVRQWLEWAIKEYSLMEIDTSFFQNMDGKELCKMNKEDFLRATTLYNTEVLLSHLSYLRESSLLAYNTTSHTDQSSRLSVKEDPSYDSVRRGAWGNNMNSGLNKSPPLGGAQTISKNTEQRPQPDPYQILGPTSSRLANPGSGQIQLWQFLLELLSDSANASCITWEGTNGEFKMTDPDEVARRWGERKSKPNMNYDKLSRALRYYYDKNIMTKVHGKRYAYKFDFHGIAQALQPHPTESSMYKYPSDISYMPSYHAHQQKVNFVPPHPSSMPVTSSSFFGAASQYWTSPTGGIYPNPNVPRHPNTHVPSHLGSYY

Assay [2] addresses T2, EHF (UniProt Q9NZC4).
T2 sequence: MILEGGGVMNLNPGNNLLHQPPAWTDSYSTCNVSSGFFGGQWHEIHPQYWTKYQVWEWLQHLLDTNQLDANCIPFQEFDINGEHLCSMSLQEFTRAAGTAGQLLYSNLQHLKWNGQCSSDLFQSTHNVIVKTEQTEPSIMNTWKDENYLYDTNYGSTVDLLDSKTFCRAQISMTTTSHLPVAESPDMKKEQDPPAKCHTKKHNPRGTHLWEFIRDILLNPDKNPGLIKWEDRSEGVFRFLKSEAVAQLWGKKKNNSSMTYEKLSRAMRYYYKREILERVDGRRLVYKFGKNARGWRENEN

Assay [3] deals with SPIB (UniProt Q01892).
In assay [4] the target is ETV5 (UniProt P41161).
In assay [5] the target is ELF4 (UniProt Q99607).
Assay [6] has as its target T3, ETV2 (UniProt O00321).
T3 sequence: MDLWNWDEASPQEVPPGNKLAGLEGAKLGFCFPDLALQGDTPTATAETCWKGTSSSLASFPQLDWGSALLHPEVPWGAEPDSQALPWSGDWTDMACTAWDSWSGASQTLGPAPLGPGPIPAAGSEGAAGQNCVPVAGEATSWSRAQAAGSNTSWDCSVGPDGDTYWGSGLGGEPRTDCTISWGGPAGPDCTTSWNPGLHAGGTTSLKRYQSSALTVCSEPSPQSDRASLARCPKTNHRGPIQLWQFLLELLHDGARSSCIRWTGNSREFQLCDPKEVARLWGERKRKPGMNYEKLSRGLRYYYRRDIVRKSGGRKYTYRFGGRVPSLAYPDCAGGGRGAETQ

The target of assay [7] is T4, ETV3L (UniProt Q6ZN32).
T4 sequence: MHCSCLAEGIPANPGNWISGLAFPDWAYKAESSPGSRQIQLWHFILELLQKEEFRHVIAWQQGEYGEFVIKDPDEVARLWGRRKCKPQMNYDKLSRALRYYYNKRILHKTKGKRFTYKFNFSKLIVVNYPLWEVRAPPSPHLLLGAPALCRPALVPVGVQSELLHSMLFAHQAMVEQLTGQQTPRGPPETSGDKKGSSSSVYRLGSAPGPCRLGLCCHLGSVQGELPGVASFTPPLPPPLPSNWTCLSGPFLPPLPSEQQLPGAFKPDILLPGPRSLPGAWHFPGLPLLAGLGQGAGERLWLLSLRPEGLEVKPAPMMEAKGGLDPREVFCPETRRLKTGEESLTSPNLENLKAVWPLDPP

Only a part is listed here, and it is no random draw. At the low end of the ranking, values are background and their order means little.

Regarding TTGAGT, the binding signal is 0.707 in assay [1]; 0.677 in assay [2]; 0.687 in assay [3]; 0.669 in assay [4]; 0.719 in assay [5]; 0.676 in assay [6]. The sequence further had a binding signal in assay [7] of 0.64.
With GACGCT, the binding signal was found to be 0.784 in assay [1]; 0.738 in assay [2]; 0.83 in assay [3]; 0.833 in assay [4]; 0.83 in assay [5]; 0.827 in assay [6]. This sequence showed a binding signal in assay [7] of 0.727.
GCCAAA: the binding signal in assay [1] amounted to 0.862; in assay [2] it was 0.856; in assay [3], 0.813; in assay [4], 0.925; in assay [5], 0.887; in assay [6], 0.878. The binding signal in assay [7] was 0.877.
Turning to GATCGG, the binding signal in assay [1] was 0.512; in assay [2], 0.51; in assay [3] it was 0.457; in assay [4] it was 0.457; in assay [5], 0.477; in assay [6], 0.441. Besides, in assay [7], the binding signal was 0.5.
For the sequence TCAGGT, the binding signal in assay [1] amounted to 0.9; in assay [2], 0.804; in assay [3] it was 0.91; in assay [4] it was 0.819; in assay [5], 0.878; in assay [6], 0.917. The sequence also showed a binding signal in assay [7] of 0.829.
On to TCGGCC, for which the binding signal in assay [1] turned out to be 0.794; in assay [2] it was 0.759; in assay [3], 0.763; in assay [4], 0.703; in assay [5], 0.844; in assay [6], 0.79. For the same sequence, in assay [7], the binding signal worked out at 0.771.
Consider GACGTG, for which the binding signal turned out to be 0.376 in assay [1]; 0.328 in assay [2]; 0.3 in assay [3]; 0.341 in assay [4]; 0.348 in assay [5]; 0.321 in assay [6]. In assay [7], this sequence yielded a binding signal of 0.344.
Regarding GGCTGA, the binding signal in assay [1] worked out at 0.743; in assay [2] it was 0.835; in assay [3] it was 0.667; in assay [4] it was 0.785; in assay [5], 0.791; in assay [6], 0.99. The same sequence yielded a binding signal in assay [7] of 0.934.
On to TGTGAA, for which the binding signal in assay [1] is 0.84; in assay [2], 0.895; in assay [3] it was 0.908; in assay [4] it was 0.849; in assay [5] it was 0.901; in assay [6] it was 0.732. For the same sequence, in assay [7], the binding signal turned out to be 0.824.
With CGTGAC, the binding signal in assay [1] is 0.59; in assay [2], 0.589; in assay [3], 0.536; in assay [4], 0.546; in assay [5], 0.525; in assay [6], 0.539. Moreover, the binding signal in assay [7] was determined as 0.608.
Consider CAGGAC, for which the binding signal in assay [1] came to 0.749; in assay [2], 0.704; in assay [3], 0.825; in assay [4], 0.776; in assay [5], 0.745; in assay [6], 0.729. Further, the binding signal in assay [7] was 0.816.
As to ATAGGA, the binding signal in assay [1] came to 0.772; in assay [2], 0.847; in assay [3] it was 0.875; in assay [4], 0.869; in assay [5], 0.756; in assay [6], 0.821. The binding signal in assay [7] was 0.838.
Regarding GGGCGA, the binding signal in assay [1] worked out at 0.684; in assay [2], 0.734; in assay [3] it was 0.758; in assay [4], 0.718; in assay [5] it was 0.775; in assay [6], 0.998. Also, the binding signal in assay [7] amounted to 0.78.
Regarding CGGCAG, the binding signal in assay [1] turned out to be 0.847; in assay [2] it was 0.848; in assay [3] it was 0.788; in assay [4], 0.828; in assay [5] it was 0.814; in assay [6], 0.94. The sequence also displayed a binding signal in assay [7] of 0.753.
Regarding GGAACG, the binding signal came out at 0.61 in assay [1]; 0.616 in assay [2]; 0.659 in assay [3]; 0.657 in assay [4]; 0.593 in assay [5]; 0.552 in assay [6]. This sequence also displayed a binding signal in assay [7] of 0.637.
On to GGTGAA, for which the binding signal in assay [1] is 0.773; in assay [2], 0.77; in assay [3], 0.684; in assay [4], 0.787; in assay [5], 0.702; in assay [6], 0.729. This sequence returned a binding signal in assay [7] of 0.78.
With ACAGCG, the binding signal is 0.805 in assay [1]; 0.837 in assay [2]; 0.871 in assay [3]; 0.812 in assay [4]; 0.846 in assay [5]; 0.839 in assay [6]. Also, the binding signal in assay [7] came out at 0.834.
In the case of AGAGCA, the binding signal in assay [1] turned out to be 0.792; in assay [2], 0.715; in assay [3], 0.695; in assay [4], 0.725; in assay [5], 0.767; in assay [6] it was 0.827. In addition, the binding signal in assay [7] was determined as 0.724.
With TGTAGG, the binding signal stood at 0.794 in assay [1]; 0.797 in assay [2]; 0.809 in assay [3]; 0.812 in assay [4]; 0.788 in assay [5]; 0.937 in assay [6]. The binding signal in assay [7] was 0.797.
As for GAGTTT, the binding signal came out at 0.594 in assay [1]; 0.596 in assay [2]; 0.618 in assay [3]; 0.611 in assay [4]; 0.633 in assay [5]; 0.574 in assay [6]. Besides, the binding signal in assay [7] was 0.641.
Take GACCCT: the binding signal in assay [1] was 0.919; in assay [2] it was 0.911; in assay [3] it was 0.835; in assay [4], 0.89; in assay [5], 0.912; in assay [6], 0.99. For the same sequence, the binding signal in assay [7] was determined as 0.864.
Take AGTGAG: the binding signal in assay [1] was 0.261; in assay [2], 0.269; in assay [3], 0.246; in assay [4], 0.253; in assay [5], 0.269; in assay [6], 0.241. Besides, the binding signal in assay [7] stood at 0.265.
With TGGAGC, the binding signal in assay [1] came out at 0.614; in assay [2], 0.657; in assay [3], 0.546; in assay [4], 0.619; in assay [5], 0.66; in assay [6], 0.603. The binding signal in assay [7] stood at 0.556.
For the sequence TAGACC, the binding signal was found to be 0.835 in assay [1]; 0.829 in assay [2]; 0.82 in assay [3]; 0.865 in assay [4]; 0.859 in assay [5]; 0.95 in assay [6]. Moreover, the binding signal in assay [7] turned out to be 0.853.
With TGAGAC, the binding signal in assay [1] stood at 0.541; in assay [2] it was 0.532; in assay [3] it was 0.518; in assay [4], 0.548; in assay [5] it was 0.55; in assay [6], 0.563. Besides, the binding signal in assay [7] stood at 0.482.
As for GAGTGA, the binding signal was 0.419 in assay [1]; 0.435 in assay [2]; 0.404 in assay [3]; 0.436 in assay [4]; 0.395 in assay [5]; 0.453 in assay [6]. In assay [7], this sequence displayed a binding signal of 0.419.
Regarding GCGGAC, the binding signal in assay [1] stood at 0.738; in assay [2], 0.735; in assay [3] it was 0.625; in assay [4] it was 0.738; in assay [5] it was 0.673; in assay [6], 0.75. This sequence returned a binding signal in assay [7] of 0.753.
As to GTCGTG, the binding signal in assay [1] was 0.425; in assay [2], 0.408; in assay [3], 0.343; in assay [4] it was 0.394; in assay [5], 0.357; in assay [6], 0.383. This sequence displayed a binding signal in assay [7] of 0.46.
On to GGGATA, for which the binding signal in assay [1] was 0.784; in assay [2] it was 0.79; in assay [3] it was 0.815; in assay [4], 0.768; in assay [5], 0.804; in assay [6], 0.688. Further, the binding signal in assay [7] came out at 0.784.
AGGACG: the binding signal was 0.501 in assay [1]; 0.473 in assay [2]; 0.504 in assay [3]; 0.499 in assay [4]; 0.451 in assay [5]; 0.453 in assay [6]. Also, in assay [7], the binding signal is 0.542.

Values taken from publication PMC7862700.
